Patent US20110257145A1, “METHOD OF TREATING NEUROLOGICAL DISEASES” (THE BOARD OF TRUSTEES OF THE UNIVERSITY OF ILLINOIS, priority 2008, published 2011)
Some entries share one result that the patent states for a list of compounds.

Tests used:
primary cortical neurons = test: HCA oxidative stress neuroprotection, cortical neurons (MTT); type: cell-based, rat; conditions: 10 μM, presence of HCA, 48 hours
Description: (§1) Primary neurons and cell culture: Cell cultures were obtained from the cerebral cortex of fetal Sprague-Dawley rats (embryonic day 17), as described previously. All experiments were initiated 24 hours after plating. Under these conditions, the cells are not susceptible to glutamate-mediated excitotoxicity.
Oxidative toxicity and neuron viability assays: For cytotoxicity studies, cells were rinsed with warm phosphate-buffered saline (PBS), then placed in minimum essential medium (Invitrogen, Carlsbad, Calif.) containing glucose (5.5 g L^−1), 10% fetal calf serum, L-glutamine (2 mM), and cysteine (100 μM). […] Viability was assessed after 48 hours by calceinacetoxymethyl ester (AM)/ethidium homodimer-1 staining (live/dead assay; Molecular Probes, Eugene, Oreg., USA) under fluorescence microscopy and the MTT assay method. […]
In one embodiment, the present invention relates to a method of treating an individual suffering from a disease or condition wherein activation of PKC and inhibition of HDAC provides a benefit comprising administering a therapeutically effective amount of a compound of structural formula (I) to an individual in need thereof. […] Neuron survival was quantified by MTT assay, a colorimetric assay in which the amount of yellow MTT is reduced to purple formazan by active mitochondrial reductase enzymes in viable cells.

[1] = tested on: acetylated histone H4 in primary cortical neurons; test: Western blot of histone H4 acetylation; type: cell-based, rat; conditions: 10 μM, 8 hours
Description: as §1
Histone precipitation and Western blot analysis: Treated neurons (about 1×10^6) were incubated in hypotonic lysis buffer (1 mL) containing Tris-HCl (pH 8.0, 10 mM), KCl (1 mM), MgCl2 (1.5 mm), DTT (1 mM), aprotinin (1 mM), pepstatin (1 mM), and PMSF (0.4 mM) for 30 minutes, rotating at 4° C. Nuclei were pelleted by centrifugation for 10 minutes at 10,000 rpm (9000 g), resuspended in H2SO4 (0.4N, 200 μL), and rotated for 12 hours at 4° C. Following centrifugation at 13,000 rpm (16,000 g value) for 10 minutes, the supernatant was transferred to anew tube, and the histone proteins were precipitated by adding 100% trichloroacetic acid (TCA: 66 μL) dropwise followed by 30 minutes incubation on ice. Histone proteins were pelleted by centrifugation at 13,000 rpm (16,000 g) for 10 minutes, washed twice with ice-cold acetone, dried at room temperature for 20-40 minutes, and resuspended in H2O ([…]). Total histone proteins (20 μL) were boiled in Laemmli buffer and electrophoresed under reducing conditions on 15% polyacrylamide gel. Histone proteins were transferred to a nitrocellulose membrane (Bio-Rad, Hercules, Calif.). Nonspecific binding was inhibited by incubation in Tris-buffered saline with Tween 20 (TBST: 50 mM Tris-HCl pH 8.0, 0.9% NaCl, and 0.1% Tween 20) containing 5% nonfat dried milk for at least 1.5 hours. […] Acetyl histone H4 and total histone H4 immunoreactivity was detected according to the enhanced chemiluminescent protocol (Amersham Biosciences, Fairfield, Conn.). […]

SMILES: CC(=O)SCCCCCOc1ccc2c(c1)N(C)C(C(C)C)C(=O)NC(CO)C2 (stereo not drawn) [Compound 11, Thioacetic acid S-[5-(5-hydroxymethyl-2-isopropyl-1-methyl-3-oxo-1,2,3,4,5,6-hexahydrobenzo[e][1,4]diazocin-9-yloxy)pentyl] ester]
- protection from HCA-induced oxidative toxicity (primary cortical neurons): complete protection
- histone H4 acetylation [1]: increase in histone H4 acetylation

SMILES: CC(=O)SCCCCCCCOc1ccc2c(c1)N(C)C(C(C)C)C(=O)NC(CO)C2 (stereo not drawn) [Compound 13, Thioacetic acid S-[7-(5-hydroxymethyl-2-isopropyl-1-methyl-3-oxo-1,2,3,4,5,6-hexahydrobenzo[e][1,4]diazocin-9-yloxy)heptyl] ester]
- protection from HCA-induced oxidative toxicity (primary cortical neurons): complete protection
- histone H4 acetylation [1]: increase in histone H4 acetylation

SMILES: CC(=O)SCCCCCCCCOc1ccc2c(c1)N(C)C(C(C)C)C(=O)NC(CO)C2 (stereo not drawn) [Compound 14, Thioacetic acid S-[8-(5-hydroxymethyl-2-isopropyl-1-methyl-3-oxo-1,2,3,4,5,6-hexahydrobenzole[e][1,4]diazocin-9-yloxy)octyl] ester]
- histone H4 acetylation [1]: increase in histone H4 acetylation
